Measurements reported in the supplement of paper PMC8960247.

Tested on: 621-102 (TSC2-deficient)
Assay: relative viability vs DMSO (fraction); higher = less cytotoxic
Conditions: serum: 0.1% FBS, 72 h

SMILES	relative viability (0.0128 nM)	relative viability (0.064 nM)	relative viability (0.32 nM)	relative viability (1.6 nM)	relative viability (8 nM)	relative viability (40 nM)	relative viability (200 nM)	relative viability (1000 nM)	relative viability (5000 nM)
CC(C)(C)c1cnc(CSc2cnc(NC(=O)C3CCNCC3)s2)o1	0.817	0.892	0.763	0.803	0.753	0.4	0.0133	0.00953	0.00991
CC(C)CC(=O)Nc1n[nH]c2c1CN(C(=O)C1CCN(C)CC1)C2(C)C	0.813	0.742	0.817	0.805	0.764	0.716	0.443	0.0793	0.012
CC(C)OC(=O)C1=CN(C(=O)c2ccc(F)c(F)c2)CC(C)(C)c2c1[nH]c1ccccc21	0.817	0.873	0.875	0.866	0.769	0.745	0.724	0.755	0.728
CC(C)[C@H](O)C(=O)N[C@@H](C)C(=O)N[C@@H]1C(=O)N(C)CCc2ccccc21	0.721	0.864	0.896	0.737	0.707	0.798	0.812	0.685	0.734
CC(C)c1cc(-c2ccc(F)c3ccccc23)nc(N)n1	1.13	1.03	1.02	0.956	0.732	0.684	0.796	0.165	0.695
CC1(C)CC(=O)c2c(C(F)(F)F)nn(-c3ccc(C(N)=O)c(N[C@H]4CC[C@H](OC(=O)CN)CC4)c3)c2C1	0.762	0.727	0.883	0.722	0.707	0.211	0.0325	0.0341	0.00869
CCOc1ccn(-c2ccc(F)cc2)c(=O)c1C(=O)Nc1ccc(Oc2ccnc(N)c2Cl)c(F)c1	1	0.995	0.964	0.918	0.65	0.436	0.783	0.937	0.18
CCc1cccc(CC)c1NC(=O)N1Cc2[nH]nc(NC(=O)c3ccc(N4CCN(C)CC4)cc3)c2C1	0.816	0.745	0.795	0.669	0.716	0.717	0.0798	0.00692	0.00614
CN(C)Cc1cccc(N/C(=C2\C(=O)Nc3cc(C(N)=O)ccc32)c2ccccc2)c1	0.709	0.748	0.693	0.758	0.701	0.675	0.625	0.632	0.594
CN(C)Cc1cccc(N=C(c2ccccc2)c2c(O)[nH]c3cc(C(=O)N(C)C)ccc23)c1	0.836	0.736	0.827	0.823	0.845	0.774	0.891	0.9	0.798
CN(c1ncccc1CNc1nc(Nc2ccc3c(c2)CC(=O)N3)ncc1C(F)(F)F)S(C)(=O)=O	0.571	0.757	0.746	0.745	0.785	0.639	0.638	0.586	0.0897
CNC(=O)Nc1ccc(-c2nc(N3CC4CCC(C3)O4)c3cnn(C4CCC5(CC4)OCCO5)c3n2)cc1	0.89	0.916	0.893	0.934	0.921	0.753	0.462	0.283	0.143
CNC(=O)c1ccc(C)c(-n2c(C)cc(OCc3ccc(F)cc3F)c(Br)c2=O)c1	0.75	0.685	0.793	0.805	0.72	0.709	0.65	0.722	0.466
COC(=O)N[C@H](C(=O)N1CCC[C@H]1c1ncc(-c2ccc(-c3ccc(-c4cnc([C@@H]5CCCN5C(=O)[C@@H](NC(=O)OC)C(C)C)[nH]4)cc3)cc2)[nH]1)C(C)C	0.803	0.797	0.921	0.838	0.827	0.716	0.716	0.648	0.645
CO[C@@H](C(=O)N1Cc2[nH]nc(NC(=O)c3ccc(N4CCN(C)CC4)cc3)c2C1)c1ccccc1	0.87	0.855	0.69	0.946	0.775	0.835	0.0334	0.0096	0.00612
CO[C@H]1C[C@@H]2CC[C@@H](C)[C@@](O)(O2)C(=O)C(=O)N2CCCC[C@H]2C(=O)O[C@H]([C@H](C)C[C@@H]2CC[C@@H](OC(=O)C(C)(CO)CO)[C@H](OC)C2)CC(=O)[C@H](C)/C=C(\C)[C@@H](O)[C@@H](OC)C(=O)[C@H](C)C[C@H](C)/C=C/C=C/C=C/1C	0.858	0.908	0.823	0.825	0.691	0.369	0.262	0.201	0.146
COc1cc(OC)c(NC(=O)Nc2cc(C)on2)cc1Cl	0.881	0.885	0.868	0.96	0.952	0.874	0.83	0.782	0.685
COc1cc2c(Nc3ccc(NC(=O)c4ccccc4)cc3)ncnc2cc1OCCCN1CCOCC1	0.497	0.651	0.489	0.593	0.591	0.602	0.509	0.0253	0.00809
COc1ccccc1N1CCN(CCN(C(=O)C2CCCCC2)c2ccccn2)CC1	0.783	0.748	0.76	0.791	0.566	0.618	0.692	0.76	0.143
C[C@H](NC(=O)Cc1cc(F)cc(F)c1)C(=O)N[C@@H]1C(=O)N(C)c2ccccc2-c2ccccc21	0.562	0.682	0.887	0.726	0.772	0.587	0.567	0.524	0.379
Cc1[nH]c(/C=C2\C(=O)Nc3ccc(S(=O)(=O)N(C)c4cccc(Cl)c4)cc32)c(C)c1C(=O)N1CCN(C)CC1	0.63	0.872	0.671	0.932	0.759	0.719	0.597	0.394	0.028
Cc1[nH]nc2ccc(-c3cncc(OC[C@@H](N)Cc4ccccc4)c3)cc12	0.849	0.867	0.866	0.807	0.739	0.73	0.562	0.132	0.0137
Cc1c(NC(=O)OC[C@@H]2COCCN2)cn2ncnc(Nc3ccc4c(cnn4Cc4cccc(F)c4)c3)c12	0.841	0.949	0.894	0.938	0.746	0.847	0.793	0.62	0.237

Entries shown so far that have a CF3 group:
SMILES	relative viability (0.0128 nM)	relative viability (0.064 nM)	relative viability (0.32 nM)	relative viability (1.6 nM)	relative viability (8 nM)	relative viability (40 nM)	relative viability (200 nM)	relative viability (1000 nM)	relative viability (5000 nM)
CC1(C)CC(=O)c2c(C(F)(F)F)nn(-c3ccc(C(N)=O)c(N[C@H]4CC[C@H](OC(=O)CN)CC4)c3)c2C1	0.762	0.727	0.883	0.722	0.707	0.211	0.0325	0.0341	0.00869
CN(c1ncccc1CNc1nc(Nc2ccc3c(c2)CC(=O)N3)ncc1C(F)(F)F)S(C)(=O)=O	0.571	0.757	0.746	0.745	0.785	0.639	0.638	0.586	0.0897

Going on with the list:

SMILES	relative viability (0.0128 nM)	relative viability (0.064 nM)	relative viability (0.32 nM)	relative viability (1.6 nM)	relative viability (8 nM)	relative viability (40 nM)	relative viability (200 nM)	relative viability (1000 nM)	relative viability (5000 nM)
Cc1ccc(C(=O)N(CCCN)[C@@H](c2oc3cc(Cl)ccc3c(=O)c2Cc2ccccc2)C(C)C)cc1	1.67	1.77	1.77	1.4	0.829	0.933	0.474	1.15	0.709
Cc1ccc(NC(=O)c2cccc(N(C)C)c2)cc1NC(=O)c1ccc(O)cc1	0.726	0.502	0.566	0.443	0.527	0.57	0.522	0.484	0.689
Cc1cccc(-c2[nH]c(C(C)(C)C)nc2-c2ccc3nccnc3c2)n1	0.982	0.937	0.892	0.907	0.662	0.877	0.79	0.773	0.755
Cc1cnc(Nc2ccc(N3CCN(C)CC3)cc2)nc1Nc1cccc(S(=O)(=O)NC(C)(C)C)c1	0.882	0.834	0.815	0.823	0.834	0.75	0.628	0.445	0.0238
Cn1c(N2CCCCS2(=O)=O)nc(C(=O)NCc2ccc(F)cc2)c(O)c1=O	0.803	0.757	0.852	0.858	0.843	0.859	0.848	0.763	0.834
N#Cc1c(O)c2c(-c3ccc(-c4ccccc4O)cc3)csc2[nH]c1=O	0.868	0.823	0.809	0.8	0.843	0.822	0.809	0.802	0.749
NC(=O)[C@@H](CCC(F)(F)F)N(Cc1ccc(-c2ncon2)cc1F)S(=O)(=O)c1ccc(Cl)cc1	0.82	0.765	0.855	0.852	0.773	0.933	0.746	0.659	0.61
NC(=O)c1ccc(-c2nc(-c3ccccn3)c(-c3ccc4c(c3)OCO4)[nH]2)cc1	0.852	0.892	0.836	0.856	0.791	0.818	0.814	0.831	0.631
NC(=O)c1cccc2[nH]c(-c3ccc(C4CCCN4)cc3F)nc12 (centres undefined)	0.856	0.874	0.868	0.707	0.74	0.745	0.758	0.721	0.598
Nc1nccc(Oc2ccc(NC(=O)c3c[nH]cc(-c4ccc(F)cc4)c3=O)cc2F)c1Cl	0.906	0.921	0.837	0.787	0.803	0.859	0.809	0.635	0.0112
O=C(NC[C@H](O)CO)c1ccncc1Nc1ccc(I)cc1F	0.833	0.812	0.798	0.834	0.741	0.784	0.752	0.602	0.43
O=C1NC(=O)/C(=C/c2ccc(-c3ccc(F)cc3O)o2)S1	0.87	0.898	0.906	0.828	0.799	0.774	0.747	0.795	0.381
O=C1NC(=O)/C(=C/c2ccc3c(c2)OC(F)(F)O3)S1	0.764	0.715	0.151	0.742	0.751	0.689	0.77	0.729	0.775
O=C1NC(=O)/C(=C\c2ccc3nccnc3c2)S1	0.97	0.954	0.937	1.02	1.02	0.941	0.862	0.823	0.445
OC(CN1CCN(c2cccc(Cl)c2)CC1)C(c1ccccc1)c1ccccc1 (centres undefined)	0.979	1.16	1.16	0.899	0.713	0.614	0.765	0.776	0.468
Oc1c2ccccc2c2c3c(cccc13)N=N2	0.987	0.999	0.99	1.07	1.03	0.94	1.04	0.992	0.565
Oc1ccc(-c2nc(-c3ccc(F)cc3)c(-c3ccncc3)[nH]2)cc1	0.933	1.09	0.355	0.898	0.995	0.932	0.931	0.883	0.868
Cc1nnc(C(C)C)n1C1C[C@H]2CC[C@@H](C1)N2CC[C@H](NC(=O)C1CCC(F)(F)CC1)c1ccccc1 (stereo in doubt) [Maraviroc]	0.704	0.771	0.693	0.81	0.755	0.732	0.734	0.835	0.837
COc1cc2c(cc1O)CC[C@@H]1[C@@H]2CC[C@]2(C)[C@@H](O)CC[C@@H]12 [2-Methoxyestradiol]	1.29	1.36	1.42	1.02	0.503	0.526	0.922	0.248	0.0381
CC(C)N(CC[C@H](c1ccccc1)c1cc(CO)ccc1O)C(C)C [5-hydroxymethyl tolterodine]	1	0.935	0.903	0.857	0.824	0.85	0.821	0.781	0.767
CC(=O)OCC1=C(C(=O)O)N2C(=O)[C@@H](N)[C@H]2SC1 [7-Aminocephalosporanic acid]	0.946	1.03	0.944	0.973	0.826	0.846	0.792	0.826	0.741
C=CCNC1=C2C[C@@H](C)C[C@H](OC)[C@H](O)[C@@H](C)/C=C(\C)[C@H](OC(N)=O)[C@@H](OC)/C=C\C=C(/C)C(=O)NC(=CC1=O)C2=O [17-AAG (Tanespimycin)]	0.873	0.831	0.873	0.953	0.827	0.815	0.817	0.804	0.83
CO[C@H]1/C=C\C=C(/C)C(=O)NC2=CC(=O)C(NCCN(C)C)=C(C[C@@H](C)C[C@H](OC)[C@H](O)[C@@H](C)/C=C(\C)[C@@H]1OC(N)=O)C2=O [17-DMAG]	1.35	1.54	1.76	1.45	0.736	0.663	1.02	0.569	0.0125

This is a noisy data set.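 Viability of TSC2-lost, immortalized human renal angiomyolipoma cells bearing an empty vector was measured by luminescent ATP assay, normalized to each plate's vehicle-treated wells, in low-serum medium, where TSC2-rescued cells do not grow.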
